According to patent US20060239913A1, “Peptide conjugate for magnetic resonance imaging” (priority 2003, published 2006):
Some results were stated once for a whole list of compounds, not compound by compound.

Tested on: ApoE-KO mice
Experiment: Biodistribution assay in ApoE-KO mice (Gd by ICP-MS)
Assay type: in vivo
Conditions: 100 μmol Gd/kg i.v., one hour post-injection
Protocol: Animals—the tissue distribution of compound B, when compared to Gd-DOTA, was performed in ApoE-KO mice in a 100% C57Bl/6 background. The animals were bred and housed in the Animal Experiment Unit of the Center of Molecular and Vascular Biology, Leuven, Belgium, and had free access to food and water.
ApoE-KO mice of 11-12 weeks were fed a cholesterol-rich Western-type diet (Tecklad, Madison, USA) for 4 months. This model of atherosclerosis was fully characterized: it contained extensive atherosclerotic plaques in the heart and aortic arch, where the plaques occupied 34% of the total lumen area. […] Biodistribution—After the diet period, animals were matched for sex and body weight. compounfd B or Gd-DOTA was administered intravenously via the tail vein (n=7/compound), at a clinical dose of 100 μmol Gd/kg. 60 min post-injection, the animals were anaesthetized and blood was obtained via eye bleeding. The mice were then subjected to a transcardiac perfusion with heparinized saline, in order to clear the intravascular compartment from any residual circulating contrast agent. […] Finally, an aliquot of the blood sample was centrifuged and the Gd^3+ contained in all the collected samples was quantified by induced coupled plasma—mass spectrometry (ICP-MS) after acidic mineralization.

## CC(C)C[C@@H](NC(=O)[C@@H]1CCCN1C(=O)CNC(=O)c1ccc(NC(=S)Nc2ccc(CCC(C(=O)O)N3CCN(CC(=O)O)CCN(CC(=O)O)CCN(CC(=O)O)CC3)cc2)cc1)C(=O)N[C@@H](C)C(=O)NO (some centres unmarked) [Compound B]
  percent of injected dose found in the plasma: 1-2%
Main organs except kidney
  concentration in the main organs: < 1 % ID
